Library screen at single concentrations

From ChEMBL document CHEMBL3988442, “University of Dundee, Small-Polar-MMV Screening Library” (2021).

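Cell assay of Leishmania donovani living inside macrophages; the read-out is not stated. Concentration: 30 µM. The record gives no direction; compounds that gave an IC50 in retests scored well above the rest, so higher reads as stronger inhibition. About 69,000 compounds were tested under these conditions; 1.5% (about 1,000) showed 50% or more at least once.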

The filed quantity is “Percent Effect” (%). How 0% and 100% were set is not recorded. Most values in the screen are low, and negative values occur. The compounds are a random part of those screened. Two or more numbers in one place are separate tests of the same structure; such repeats can differ widely.

SMILES,effect
c1ccc(CNCC2Cn3nncc3CO2)nc1 (stereo not shown),12.68 & 14.95
CN(C)C(=O)c1cccc(NC(=O)c2cnn(C)c2)c1,-6.763
CN(C)CCNC(=O)c1ccc(S(=O)(=O)N[C@@H]2CCNC2)cc1,-7.762
COc1cc(CNC(=O)N(Cc2ccc(F)cc2F)C2CC2)ccn1,35.67
COc1cc(C)cc(C(C(=O)O)N2CCN(C3CCCC3)CC2)c1OC (stereo not shown),-15.33
CC1CCCCN1Cc1nc(Cc2ccccc2)no1 (stereo not shown),-12.98
O=C(c1cnc(Nc2ccccc2)nc1)N1CCCC2(CCNC2)C1 (stereo not shown),-27.33
CCCOC1CCCN(c2ccnc(C(=O)NCc3ccco3)c2)C1 (stereo not shown),-1.784
O=S(=O)(NCCCn1cncn1)c1ccc2c(c1)OCCCO2,7.26
O=C(NC1(C(=O)O)CCCC1)C1Cc2cc(F)ccc2O1 (stereo not shown),20.55
CCC(CNC(=O)c1ccc(F)cc1F)N1CCc2ccccc2C1 (stereo not shown),19.2
CC1CCN(S(=O)(=O)NC2CCCCNC2=O)CC1 (stereo not shown),8.428
CN1CCc2c(CNC(=O)c3nccn3C)cncc2C1.Cl.Cl.Cl,3.09
CC(=O)NCC(=O)N1Cc2nc(COCc3csc(C)n3)oc2C1,32.46
CS(=O)(=O)N1CCC(C(=O)N2CCC3(CC2)OCCCO3)CC1,-4.706
Cc1nc(C2CCCN2CC(=O)NCCOc2cccc(F)c2)no1 (stereo not shown),-27.52
CCN(CC)Cc1nc2c(o1)CN(C(=O)c1ccc3[nH]ccc3c1)C2.O=CO,5.053
Cc1ncc(CNc2cnccc2CO)s1,39.44
Cn1cc(C#N)c(=O)n(CC(O)c2ccccc2F)c1=O (stereo not shown),26.03
NC(=O)CC1CCN(S(=O)(=O)N2CCCC2c2ccco2)CC1 (stereo not shown),7.356
COc1cccc(CNc2ccc(F)c(Cl)c2)c1O,-13.66
CC(C)(C)C(=O)NCCNCc1ccc(Cl)c2cccnc12,11.96
CCOc1ccc(NC(=O)c2cccc(OC)c2OC)cc1,20.69
[H][C@]12CCCC(OCc3cccnc3)[C@@]1([H])CN(C(=O)c1cccc(F)c1)C2 (stereo partly shown),3.071
O=C(c1cc2c([nH]c1=O)CCC2)N1CCCC1c1cccnc1 (stereo not shown),-7.977
Cn1nc(-c2cccc(Cl)c2)c(Br)c1C(=O)O,11.24
Cc1nn(C)c(C)c1-c1cnc(CC2CCNC2)cn1 (stereo not shown),34.1
CCc1ccccc1CNC(=O)NCc1cnn(C)c1,8.14
COC(=O)c1cccc2nc([C@H]3CCN(CC(C)C)C3)oc12,1.61
COc1ccccc1OCCCN1CCNC1=O,-0.8012
CC(C)c1nc(/C=C/c2ccc(O)c(Cl)c2)ncc1C(=O)O,3.079
O=C(O)C(F)(F)F.O=C(O)C(F)(F)F.c1cncc(CN2CCc3ncnc(C4CC4)c3CC2)c1,2.957
Cc1cc(C(=O)N2CCCC(n3cccn3)C2)c(C)n1C1CC1 (stereo not shown),12.95
Cc1nc(C(=O)N2CCCC2c2cnn(C)c2)ccc1C#N (stereo not shown),-13.9
O=C(NCC1CCOCC1)c1cc(-c2ccc3c(c2)CCO3)n[nH]1,-14.89
[H][C@@]12COC[C@@H](CC(=O)N3CCCCO3)[C@]1([H])CN(S(C)(=O)=O)C2,0.2143
CC(=O)NCCNC(=O)NCC1Cc2ccccc2O1 (stereo not shown),52.86
CCN(Cc1csc(CS(C)(=O)=O)n1)c1cccc(CO)c1,6.202
Cc1cc(CN2CCC(CNS(=O)(=O)c3ccccc3F)CC2)c(C)o1,4.85
CC(=O)N(C)CC(=O)Nc1ccc(C)cc1OCc1ccccc1,19.51
CNC(=O)c1ccc(OC)c(NCc2noc(-c3ccsc3)n2)c1,6.728
OCC1(O)CCCN(Cc2noc(-c3ccccc3)n2)C1 (stereo not shown),12.84
Cc1cnnn1Cc1ncn2c1CN(Cc1cccs1)CCC2.O=C(O)C(F)(F)F,-43.67
COc1cn(-c2ccccc2)nc1C(=O)NCCCN1CCCC(C)C1 (stereo not shown),24.42
CCc1nc(C)c(C2CC(=O)Nc3c2c(C(C)(C)C)nn3C)[nH]1 (stereo not shown),-4.884
CC1(C)Cc2ccccc2-c2nc(NCCCO)[nH]c(=O)c21,9.047 & -1.936
CCc1nc2n(n1)CC(NCC(=O)Nc1cc(C(C)(C)C)no1)CC2 (stereo not shown),12.12
CCc1nc(C2CCCN2C(=O)CCn2cncn2)no1 (stereo not shown),16.63
COCCCNC(=O)CN(C)C(=O)c1ccc(-n2cccc2)cc1O,6.29
CCN1CCN(C(C)CNC(=O)Nc2cnn(CC)c2)CC1 (stereo not shown),11.18
Cc1nnc(CN2CCOC(c3ccc(Cl)cc3)C2)o1 (stereo not shown),-23.96
COc1ccc(C2CCCN2c2cnccn2)c(OC)c1 (stereo not shown),20.05
Cc1cnc(Cn2cc(-c3cccc(C(C)N(C)C)c3)nn2)cn1 (stereo not shown),15.23
COc1ccccc1OCCN(C)Cc1c(C2CC2)[nH]c2ncccc12,-51.59
O=C(O)C(F)(F)F.[H][C@@]12CCCO[C@]1([H])[C@@H](OCC(C)C)CN2Cc1scnc1C,-14.11
CN(C)c1ccc2c(c1)CN(C(=O)c1cnccn1)C2c1cnco1 (stereo not shown),3.923
Cc1cccnc1NC(=O)c1ccc(F)c(S(=O)(=O)NC2CC2)c1,2.163
CCNC(=O)CCN1CCC(c2cc(N3CCOCC3)nc(C)n2)CC1,38.39
Cc1nc(N2CCCC2)nc2c1CN(C(=O)NC(C)C)CC2,5.828
Cc1ccccc1[C@@H]1CN(Cc2nc3ncccn3n2)C[C@H]1C(=O)O,21.87
Fc1cccc(CNCC2OCCc3cn(CC4CCOCC4)nc32)c1.O=C(O)C(F)(F)F (stereo not shown),25.72
COCCC(=O)N(CCC#N)c1ccc2c(c1)OCCO2,-8.317
Cc1ncc(CC(=O)N2CCC(N3C[C@@H](C)O[C@@H](C)C3)CC2)c(=O)[nH]1,37.74

Once more, the final 8:

SMILES,effect
CN(C)c1ccc2c(c1)CN(C(=O)c1cnccn1)C2c1cnco1 (stereo not shown),3.923
Cc1cccnc1NC(=O)c1ccc(F)c(S(=O)(=O)NC2CC2)c1,2.163
CCNC(=O)CCN1CCC(c2cc(N3CCOCC3)nc(C)n2)CC1,38.39
Cc1nc(N2CCCC2)nc2c1CN(C(=O)NC(C)C)CC2,5.828
Cc1ccccc1[C@@H]1CN(Cc2nc3ncccn3n2)C[C@H]1C(=O)O,21.87
Fc1cccc(CNCC2OCCc3cn(CC4CCOCC4)nc32)c1.O=C(O)C(F)(F)F (stereo not shown),25.72
COCCC(=O)N(CCC#N)c1ccc2c(c1)OCCO2,-8.317
Cc1ncc(CC(=O)N2CCC(N3C[C@@H](C)O[C@@H](C)C3)CC2)c(=O)[nH]1,37.74